PubChem BioAssay AID1259254 | NCATS – 2017
Assay: 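Gene knock-downs that lead to re-replication, shown by excess G2 DNA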 (primary screen). Cell system: human HCT116 colorectal cancer cells. Reagents: single siRNA against human genes. Time to read-out: 3 days. Measurement: 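Imaged Hoechst DNA stain sorts each cell into a cycle phase by DNA amount; per plate, G2 fraction set to 0% for non-targeting and 100% for GMNN siRNA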. Scale: G2 robust z-score and G2 cells, % of GMNN control: higher = more G2 cells, more excess DNA replication. Active means: 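Active siRNAs have a G2 robust z of 5 or more median absolute deviations over the median, which in these data means about 38% or higher of GMNN control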.
Here is a random part of about 59,000 deposited reagents. About 1,550 of them (2.6%) count as active. 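G2 share is only a proxy for re-replication; each gene was hit by three separate siRNAs, and active genes were retested.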 The numbers tell different reagents against one gene apart. Not all columns of the deposit are shown. Reagent sequences are not shown. Not stated in the record: the amount of reagent.

CHID1 #1: G2 robust z-score = 0.0631; G2 cells, % of GMNN control = 3.41; Call = inactive
CHID1 #2: G2 robust z-score = -0.88; G2 cells, % of GMNN control = -3.22; Call = inactive
CHID1 #3: G2 robust z-score = 2.09; G2 cells, % of GMNN control = 17.6; Call = inactive
LINC01567 #1: G2 robust z-score = 0.512; G2 cells, % of GMNN control = 6.57; Call = inactive
LINC01567 #2: G2 robust z-score = -0.742; G2 cells, % of GMNN control = -2.26; Call = inactive
LINC01567 #3: G2 robust z-score = 1.81; G2 cells, % of GMNN control = 15.7; Call = inactive
CCT7 #1: G2 robust z-score = -0.43; G2 cells, % of GMNN control = -0.0606; Call = inactive
CCT7 #2: G2 robust z-score = 1.49; G2 cells, % of GMNN control = 13.5; Call = inactive
CCT7 #3: G2 robust z-score = 0.608; G2 cells, % of GMNN control = 7.24; Call = inactive
GNG11 #1: G2 robust z-score = -1.34; G2 cells, % of GMNN control = -6.43; Call = inactive
GNG11 #2: G2 robust z-score = -0.931; G2 cells, % of GMNN control = -3.58; Call = inactive
GNG11 #3: G2 robust z-score = 0.269; G2 cells, % of GMNN control = 4.86; Call = inactive
OR4D10 #1: G2 robust z-score = -0.505; G2 cells, % of GMNN control = -0.586; Call = inactive
OR4D10 #2: G2 robust z-score = -0.855; G2 cells, % of GMNN control = -3.05; Call = inactive
OR4D10 #3: G2 robust z-score = -0.661; G2 cells, % of GMNN control = -1.68; Call = inactive
CFAP52 #1: G2 robust z-score = -0.974; G2 cells, % of GMNN control = -3.88; Call = inactive
CFAP52 #2: G2 robust z-score = -0.998; G2 cells, % of GMNN control = -4.06; Call = inactive
CFAP52 #3: G2 robust z-score = -0.823; G2 cells, % of GMNN control = -2.82; Call = inactive
NDUFS6 #1: G2 robust z-score = 0.615; G2 cells, % of GMNN control = 7.3; Call = inactive
NDUFS6 #2: G2 robust z-score = -0.676; G2 cells, % of GMNN control = -1.79; Call = inactive
NDUFS6 #3: G2 robust z-score = 0.351; G2 cells, % of GMNN control = 5.44; Call = inactive
BAALC #1: G2 robust z-score = 1.12; G2 cells, % of GMNN control = 10.8; Call = inactive
BAALC #2: G2 robust z-score = 0.03; G2 cells, % of GMNN control = 3.18; Call = inactive
BAALC #3: G2 robust z-score = 0.258; G2 cells, % of GMNN control = 4.78; Call = inactive

Individual results from above:
CFAP52 #1, G2 cells, % of GMNN control → -3.88
For “G2 robust z-score”, CFAP52 #3 shows -0.823
